According to patent US6472227B1, “Barbiturate assay, tracers, immunogens, antibodies and kit” (Abbott Laboratories, priority 1986, dated 2002):

How the values were obtained:
[1] = tested on: antibodies raised against an immunogen having the structure shown in FIG. 29; assay: Fluorescence polarization immunoassay cross-reactivity, tracer of FIG. 31; type: binding, sheep; details: Conc. Added 100 (ng/mL); tracer FIG. 31
Protocol: (§1) The antibodies of the present invention are prepared by eliciting a response in sheep to the immunogens described supra. The immunogen is administered to animals or to in vitro cultures of immunocompetent cells by a series of innoculations, in a manner well known to those skilled in the art.

[2] = tested on: antibodies raised against an immunogen having the structure shown in FIG. 29; assay: Fluorescence polarization immunoassay cross-reactivity in drug-free normal human urine, tracer of FIG. 30; type: binding, sheep; details: Conc. Added 100 (ng/mL); tracer FIG. 30
Protocol: as §1, with “art. It should be understood that although sheep were the preferred immune host to barbiturate immunogens in the experiments detailed herein, any in vivo or in vitro host capable of producing antibodies to the structures herein outlined may be employed.” for “art.”
For the most preferred assay of the present invention, all percentages expressed herein are weight/volume unless otherwise indicated. The tracer formulation presently preferred is 150 nanomolar tracer in: 0.1 molar phosphate buffer at pH 6.2; 5% sodium 5-sulfosalicylate; 0.1% sodium azide; and 0.01% bovine gamma-globulin. […]
If a manual assay is being performed, then the sample is mixed with the pretreatment solution in dilution buffer and a background reading is taken. […] After incubation, a fluorescence polarization reading is taken.
The net fluorescence polarization value of each calibrator, control or sample is determined and is printed on the output tape of an instrument such as the Abbott TDx® Analyzer. […] The concentration of each control or sample is read off the stored calibration curve and printed on the output tape. […]

COc1ccc2cc([C@H](C)C(=O)O)ccc2c1 [Naproxen]
% CR [1]: 0.02%
Conc. Found [1]: 20 ng/mL
% CR [2]: 0.02%
Conc. Found [2]: 20 ng/mL
